{"source": "PubChem BioAssay AID1347076", "about": "(National Center for Advancing Translational Sciences (NCATS), 2019)", "note": "Hit rate of the full screen: of about 400,000 compounds, about 13,000 (3.2%) were called active. Inconclusive results, whose numbers are uncertain, are shown with a selection of clear calls. Calls follow the shape of the dose curve; as a rule, active = well fitted cell-killing curve with a large enough effect; inconclusive = small, poorly fitted or top-dose-only effect, or effect the other way; inactive = flat fitted curve, though single readings scatter. Where the call is inconclusive, the potency comes from a doubtful curve fit. Potency is read from the fitted curve at half-maximal effect.", "data": [{"experiment": "qHTS assay for MDR1-selective chemotherapeutics: Primary screen using the drug-selected MDR subline cells KB-V1; also: nearly all actives have a fitted effect of over 60% in size", "details": "KB-V1 MDR cells viability, CellTiter-Glo, 72 h; series mostly up to 46.1 µM", "how_it_was_run": "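KB-V1 cells (P-gp-expressing MDR subline of KB-3-1) in phenol-red-free DMEM with 10% FBS were exposed to library compounds over a concentration series for 72 h at 37 degrees C. Viability read by CellTiter-Glo luminescence; concentration-effect curves fitted after normalization.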", "values": [{"smiles": "O=c1c2c(ncn2C2CCCC2)n(Cc2ccccc2)c(=O)n1CCOc1ccccc1", "Potency": "inconclusive: 6.51 µM [cytotoxic, partial curve]"}, {"smiles": "CCOc1cc2nc(-c3ccc(OC)c(OC)c3)nc(NCCCN3CCOCC3)c2cc1OC", "Potency": "inconclusive: 11.6 µM [cytotoxic, partial curve, poor fit]"}, {"smiles": "O=C(C1=C(c2ccccc2)C(=O)c2ccccc2C1=O)c1ccccc1", "Potency": "inconclusive: 29.1 µM [cytotoxic, single point]"}, {"smiles": "Cc1ccc(C)c(N(CC(=O)NCCc2ccccc2)C(=O)CCC(=O)Nc2ccccn2)c1", "Potency": "inconclusive: 7.31 µM [cytotoxic, partial curve]"}, {"smiles": "Cc1ccc(OC(=O)c2c(C)nn(-c3ccccc3)c2C)cc1", "Potency": "inconclusive: 23.1 µM [cytotoxic, single point]"}, {"smiles": "Cc1c(C(=O)C(=O)N2CC=C(c3ccccc3)CC2)c2ccccc2n1C", "Potency": "active: 3.66 µM"}, {"smiles": "CC(C)C[C@H](NC(=O)c1cc2cc(Cl)ccc2n1C)C(=O)N1CCC[C@H]1C(=O)O", "Potency": "inconclusive: 2.91 µM [cytotoxic, partial curve, poor fit]"}, {"smiles": "Nc1cc2c(cc1Cl)-c1ccc([N+](=O)[O-])cc1C2=NO", "Potency": "inactive"}, {"smiles": "COc1ccc(C(=O)N/N=C(\\Cc2ncc[nH]2)c2ccccc2)cc1", "Potency": "inconclusive: 14.6 µM [cytotoxic, partial curve]"}, {"smiles": "CCCC(=O)N1c2ccccc2-c2nnc(SC)nc2OC1c1sccc1C", "note": "(configuration not stated)", "Potency": "inactive"}, {"smiles": "CCc1nnc(NS(=O)(=O)c2ccc(NC(=O)c3cccc4ccccc34)cc2)s1", "Potency": "inconclusive: 0.731 µM [rising, full curve]"}, {"smiles": "O=C(CCNC(=O)c1ccc(Br)cc1)Nc1nccs1", "Potency": "inconclusive: 18.4 µM [cytotoxic, partial curve, poor fit]"}, {"smiles": "CCOC(=O)CNC(=O)COc1coc(CN2CCN(c3ccccc3)CC2)cc1=O", "Potency": "inconclusive: 23.1 µM [rising, single point]"}, {"smiles": "Cc1cccc(OCC(=O)Nc2ccccc2-c2ccccc2)c1", "Potency": "inconclusive: 23.1 µM [cytotoxic, single point]"}, {"smiles": "CCOc1ccc2c(c1)C(=O)C(=O)N2CC1COc2ccccc2O1", "note": "(configuration not stated)", "Potency": "inactive"}, {"smiles": "CN1CCN(C(=S)c2cn(CCOc3ccccc3)c3ccccc23)CC1", "Potency": "inconclusive: 20.6 µM [cytotoxic, single point]"}, {"smiles": "Cc1cc(N2CCN(C/C=C/c3ccccc3)CC2)n2ncnc2n1", "Potency": "active: 9.2 µM"}, {"smiles": "Cc1ccc(NC(=O)c2cnccn2)cc1S(=O)(=O)N1CCCCCC1", "Potency": "inconclusive: 10.3 µM [cytotoxic, partial curve]"}, {"smiles": "CN(C)c1ccc(P(=O)(COc2ccc([N+](=O)[O-])cc2)c2ccc(N(C)C)cc2)cc1", "Potency": "inconclusive: 18.4 µM [cytotoxic, single point]"}, {"smiles": "CCN(CC(=O)Nc1ccc(OC)cc1)CC(=O)Nc1ccc(Br)cc1F", "Potency": "inactive"}, {"smiles": "Cc1ccc(C)c(S(=O)(=O)NCc2ccc(C(=O)N3CCN(c4ccccc4)CC3)cc2)c1", "Potency": "inconclusive: 5.17 µM [cytotoxic, full curve]"}, {"smiles": "NC(=O)c1ccc(NCC2CCCO2)c([N+](=O)[O-])c1", "note": "(configuration not stated)", "Potency": "inconclusive: 20.6 µM [cytotoxic, single point]"}, {"smiles": "CCOC(=O)c1cc2sccc2n1CC(=O)c1ccc2c(c1)OCCO2", "Potency": "inconclusive: 20.6 µM [cytotoxic, partial curve]"}, {"smiles": "COc1ccc(Cl)cc1NC(=O)CN(C)C(=O)C1COc2ccccc2O1", "note": "(configuration not stated)", "Potency": "active: 16.4 µM"}, {"smiles": "O=S(=O)(c1ccc(NC(=S)N2CCCCC2CO)cc1)N1CCOCC1", "note": "(configuration not stated)", "Potency": "inconclusive: 23.1 µM [cytotoxic, single point]"}, {"smiles": "Cc1noc(C)c1CSCC(=O)N(C)CC(=O)Nc1ccccc1Br", "Potency": "inconclusive: 20.6 µM [cytotoxic, single point]"}, {"smiles": "COc1ccccc1NC(=O)Cn1c(C)cc(=O)c2cccc(OC)c21", "Potency": "inconclusive: 6.51 µM [cytotoxic, partial curve, poor fit]"}, {"smiles": "CCOc1ccc(-c2noc(-c3cccnc3)n2)cc1OCC", "Potency": "inconclusive: 20.6 µM [cytotoxic, single point]"}, {"smiles": "CCOC(=O)c1c(NC(=O)COc2ccc(Cl)cc2Cl)sc2c1CCCCC2", "Potency": "inactive"}, {"smiles": "CCc1ccc(S(=O)(=O)Nc2cc3c(cc2C)n(C)c(=O)c(=O)n3C)cc1", "Potency": "inactive"}, {"smiles": "COc1ccccc1-c1nc(SCC(=O)Nc2ccccc2F)n[nH]1", "Potency": "inconclusive: 20.6 µM [cytotoxic, single point]"}, {"smiles": "C(=N/N1CCN(c2ccccc2)CC1)/c1cccs1", "Potency": "inconclusive: 20.6 µM [cytotoxic, single point]"}, {"smiles": "CC(C)(C)c1ccc(NC(=O)CCNC(=O)c2ccco2)cc1", "Potency": "inactive"}, {"smiles": "Cc1ccc(C)c(Nc2nc3ccccc3n3cnnc23)c1", "Potency": "inactive"}, {"smiles": "CN(C)c1ccc(/C=C(/NC(=O)c2ccccc2)C(=O)NCCCn2ccnc2)cc1", "Potency": "inactive"}, {"smiles": "COc1ccc(N=C2SC(CC(=O)Nc3ccccc3)C(=O)N2CCc2ccccn2)cc1", "note": "(configuration not stated)", "Potency": "inconclusive: 16.4 µM [cytotoxic, partial curve, poor fit]"}, {"smiles": "COc1cc(C(=O)NCCc2sc(-c3cccc(F)c3)nc2C)cc(OC)c1OC", "Potency": "inactive"}, {"smiles": "Cc1cc(C)n2nc(SCC(=O)N3CCCC3)nc2n1", "Potency": "inactive"}, {"smiles": "CCc1ccc(CNC(=O)c2ccc(-c3nc(CSc4ccc(C)cc4)c(C)o3)cc2)cc1", "Potency": "inactive"}, {"smiles": "CCOC(=O)C1=C(C)NC(SCC(=O)O)=NC1c1ccccc1", "note": "(configuration not stated)", "Potency": "inactive"}, {"smiles": "Cc1ccc(S(=O)(=O)N(C)CC(=O)N(CC(C)C)C2CCS(=O)(=O)C2)cc1", "note": "(configuration not stated)", "Potency": "inactive"}, {"smiles": "Brc1ccc2c(c1)C(c1ccc(N3CCOCC3)cc1)=NNC(c1cccs1)=N2", "Potency": "inactive"}, {"smiles": "CCNC(=S)N1CC(C)OC(C)C1", "note": "(configuration not stated)", "Potency": "inconclusive: 16.4 µM [rising, single point]"}, {"smiles": "Cn1c(=O)c2[nH]c(CN3CCN(Cc4ccccc4)CC3)nc2n(C)c1=O", "Potency": "inactive"}, {"smiles": "COc1cccc(CNC(=O)CCn2cnc3ccccc3c2=O)c1", "Potency": "inactive"}, {"smiles": "Cc1c(C(C)(C)O)[nH]c2ccc(C(F)(F)F)cc12", "Potency": "inactive"}, {"smiles": "COc1ccc(CN(C(=O)CSc2nnc(-c3ccccc3F)o2)c2ccc(F)cc2)cc1", "Potency": "inconclusive: 7.31 µM [cytotoxic, partial curve]"}, {"smiles": "COc1cccc(-c2csc(N3CCN(C(=S)Nc4ccccc4)CC3)n2)c1", "Potency": "inactive"}, {"smiles": "COc1cccc(-c2cc(C(F)(F)F)n3ncc(C(=O)N4CCc5ccccc5C4)c3n2)c1", "Potency": "inactive"}, {"smiles": "CCc1ccc2nc(N(CCN(C)C)C(=O)c3ccc4ncsc4c3)sc2c1", "Potency": "inactive"}, {"smiles": "COc1ccc(-c2cc(=O)c3c(O)c(OC)c(OC)c(OC)c3o2)cc1", "Potency": "inconclusive: 2.06 µM [cytotoxic, full curve, poor fit]"}, {"smiles": "COc1cccc(-n2nc(C(=O)N3CC(C)CC(C)C3)c3ccccc3c2=O)c1", "note": "(configuration not stated)", "Potency": "inconclusive: 3.26 µM [cytotoxic, full curve]"}, {"smiles": "C=CC[C@H](CC(=O)N(CCO)Cc1ccccc1)C(=O)N[C@@H](COC(=O)[C@@H](CC=C)CC(=O)OC(C)(C)C)Cc1c[nH]c2ccccc12", "Potency": "inconclusive: 20.6 µM [cytotoxic, partial curve, poor fit]"}, {"smiles": "CC1(C)CCCC(C)(C)N1CC(O)COCCOc1ccc(Br)cc1", "note": "(configuration not stated)", "Potency": "inconclusive: 9.2 µM [cytotoxic, partial curve]"}, {"smiles": "COc1ccc(-c2nnc(SCC(=O)Nc3c(C)cccc3C)nc2-c2ccc(OC)cc2)cc1", "Potency": "inactive"}, {"smiles": "CCC(CC)C(=O)NCCCCc1ccccc1", "Potency": "inconclusive: 29.1 µM [cytotoxic, single point]"}, {"smiles": "O=C(c1ccc(CS(=O)Cc2ccccc2Cl)o1)N1CCN(c2ccccc2)CC1", "note": "(configuration not stated)", "Potency": "inconclusive: 14.6 µM [cytotoxic, partial curve]"}, {"smiles": "CCCCOc1ccccc1C1CC(=O)Nc2cc(C)c(C)cc21", "note": "(configuration not stated)", "Potency": "inconclusive: 29.1 µM [cytotoxic, single point]"}, {"smiles": "CCCCCCn1c(=O)[nH]c2c(c1=O)CCC2", "Potency": "inactive"}, {"smiles": "COc1ccc(N2CC(C(=O)N3CCC4(CC3)CC(=O)c3ccccc3O4)CC2=O)cc1", "note": "(configuration not stated)", "Potency": "inconclusive: 13 µM [cytotoxic, partial curve]"}, {"smiles": "O=C(CCN1C(=O)c2cccc([N+](=O)[O-])c2C1=O)NC1CCCCCC1", "Potency": "inactive"}, {"smiles": "CN1C(=O)NC(c2ccc(O)cc2)C2=C1CN(c1ccc(O)cc1)C2=O", "note": "(configuration not stated)", "Potency": "inactive"}, {"smiles": "Cc1ccc(NC(=O)c2nc[nH]c2C(=O)NC2CCN(C(=O)OC(C)(C)C)CC2)cc1", "Potency": "inconclusive: 29.1 µM [cytotoxic, single point]"}, {"smiles": "COc1ccc(S(=O)(=O)Nc2cc3c4c(oc3c3ccccc23)CCCC4=O)cc1", "Potency": "active: 5.17 µM"}, {"smiles": "CC(C)(O)C#Cc1ccc(CN2CCN(Cc3ccccc3)C(CCO)C2)cc1", "note": "(configuration not stated)", "Potency": "inconclusive: 1.16 µM [cytotoxic, full curve, poor fit]"}, {"smiles": "Cn1c(=O)c2c(nc(NCCc3ccccc3)n2Cc2ccc(F)cc2)n(C)c1=O", "Potency": "active: 4.11 µM"}, {"smiles": "COCCOC(=O)c1c(C)oc2ccc(NS(=O)(=O)c3ccc(F)cc3)cc12", "Potency": "active: 5.17 µM"}, {"smiles": "CN(c1cccc(NC(=O)Nc2cccc(Cl)c2)c1)S(C)(=O)=O", "Potency": "inconclusive: 20.6 µM [cytotoxic, single point]"}, {"smiles": "CCCCNCc1cc(Cl)c(OCCC)c(OCC)c1", "Potency": "active: 16.4 µM"}, {"smiles": "CCN(CC)S(=O)(=O)c1ccc(CNC(=O)CN2C(=O)NC3(CCc4ccccc43)C2=O)cc1", "note": "(configuration not stated)", "Potency": "inconclusive: 29.1 µM [rising, single point]"}, {"smiles": "COc1ccc(Cl)cc1N(C)C(=O)CCc1nc(-c2ccc(C)cc2)no1", "Potency": "inconclusive: 20.6 µM [cytotoxic, partial curve]"}, {"smiles": "CCN(CC(=O)Nc1ccccc1C(F)(F)F)C(=O)CSCc1c(C)noc1C", "Potency": "inconclusive: 6.51 µM [cytotoxic, partial curve]"}]}]}
